Experimental data reported in BindingDB's records for doi:10.1016/j.bmcl.2006.05.060 (University of Kentucky, 2006).

Test: Displacement of radiolabeled NalBzOH from kappa3 opioid receptor in Hartley guinea pig brain

Question: With `CN1CC[C@]23c4c5ccc(O)c4O[C@H]2[C@@H](O)C=C[C@H]3[C@H]1C5` as the molecule, how does the Ki read?
Answer: 14 nM
